Reference: the RNAGym collection of RNA variant scans (doi:10.1126/science.aae0568)
This sample is rich in variants without activity.

B1: tRNA (parent)
chain: GUUCCGUUGGCGUAAUGGUAACGCGUCUCCCUCCUAAGGAGAAGACUGCGGGUUCGAGUCCCGUACGGAACG

Variants of: B1
Assay: yeast fitness relative to wild type (ratio to wild type); higher = fitter; tRNA-Arg(CCU), competitive growth, 37 C, YPD
Outline: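 Changes in genotype frequencies gave Darwinian fitness relative to wild type. Frequencies were read by 100-nucleotide paired-end sequencing of gene amplicons before and after pooled Saccharomyces cerevisiae strains, carrying tRNA-Arg(CCU) gene variants at the native locus, were competed in YPD at 37°C for 24 hours in six replicates. A genotype was kept only with ≥ 100 starting reads, and estimates < 0.5 were set to 0.5.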

Variant	yeast fitness
GUUCAGUCGGCGUAAUGGUAACGCGUCUCCCUCCUAAAGAGAAGACUGCGGGUUCGAGUCCCGUAUGGAACG [C5A U8C G38A C66U]	≤ 0.5
GUUCAGUGGGCGUAAUGGUAACGCGUUUCCCUCCUAAGGAGAAGGCUGCGGGCUCGAGUCCCGUACGGAACG [C5A U8G C27U A45G U53C]	≤ 0.5
GUUCAGUUGGCGAAAUGGUAACGCGUCUCCCUCCAAAGGAGAAGACUGCGGGUUCGAGCCCCGUACGGAUCG [C5A U13A U35A U59C A70U]	0.58
GUUCAGUUGGCGUAAAGGUAACGCGUCUCCCUCCUAAGGAGAAGGCUGCAGGUUCGAGUCUCGUACGGAACG [C5A U16A A45G G50A C61U]	≤ 0.5
GUUCAGUUGGCGUAAGGGUUACGCGUCUCCCUCCUAAGGAGAAGACUGCGGGUUCGAGUCCCGUACGGAACG [C5A U16G A20U]	≤ 0.5
GUUCAGUUGGCGUAAUGGCAACGCGUCUGCUUCCUAAGGAGAAGACUGCGGGUUCGAGUCCCGUACGGAACG [C5A U19C C29G C31U]	≤ 0.5
GUUCAGUUGGCGUAAUGGUAACGCGACUCCCUCCUAAGGGGAAGACUGCGGGUUCGAGUCCCGUACGGAACG [C5A U26A A40G]	≤ 0.5
GUUCAGUUGGCGUAAUGGUAACGCGUCGCCCUCCUAAGGAGAAGACUGCGGGUUCGAGUCCCGUACGCAACG [C5A U28G G68C]	≤ 0.5
GUUCAGUUGGCGUAAUGGUAACGCGUCUCCCUCCCAAGGAGAAGACUGCGGGUUCGAGUCCCGUACGUAACG [C5A U35C G68U]	≤ 0.5
GUUCAGUUGGCGUAAUGGUAACGCGUCUCCCUCCGAAGGAAACGACUGCGGGUUCAAGUCCCGUACGGACCG [C5A U35G G41A A43C G56A A70C]	≤ 0.5
GUUCGGUUGGCGUCAUGGUAACGCGUCUCUCUCCUAAGGAGAAGACUGCGGGUUCGAGUCACGUACGGAACG [C5G A14C C30U C61A]	≤ 0.5
GUUCGGUUGGCGUGAUGCUAACGUGUCUCCCUCCUAAGGAGAAGACUGCGGGUUCGAGUCCCGUACGGAACG [C5G A14G G18C C24U]	≤ 0.5
GUUCGGUUGGCGUGAUGCUAACGUGUCUCCCUCCUAAGGAGAAGACUGCGGGUUCGAGUCCCGUACUGAACG [C5G A14G G18C C24U G67U]	≤ 0.5
GUUCGGUUGGCGUACUGGUAACGCGUCUCCCUCCUAAGGGGAAGACUGCGGCUUUGAGUCCCGUACGGAACG [C5G A15C A40G G52C C55U]	≤ 0.5
GUUCGGUUGGCGUAGUGGUAACGCGUCUCCCUCCUAAGGAGAAGACUGCGGGUUCGAGUCCCGUACAGAACG [C5G A15G G67A]	≤ 0.5
GUUCGGUUGGCGUAUUGGUAACGCGUCUCCCUCCUAAGGAGAAGACUGCGGGUUCGAGUCCCAUACGGAACG [C5G A15U G63A]	0.551
GUUCGGUUGGCGUAAUGGUCACGCGUCUCCCUCCUAAGGAAAAGACUGCGGGUUCGAGUCCCGUACGGUACG [C5G A20C G41A A69U]	≤ 0.5
GUUCGGUUGGCGUAAUGGUACCGCGUCUCCCUCCUAAGGACAAGACUGCGGGUUCGAGUCCCGUACGGAACG [C5G A21C G41C]	≤ 0.5
GUUCGGUUGGCGUAAUGGUAGCGCGUCUCCCUCCUAAGGAGAAGACUGCGGGUUCGAGUCCCGUACGGAACG [C5G A21G]	0.997

Variant	yeast fitness
GUUCGGUUGGCGUAAUGGUAUCGCGUCUCCCUCCUAAGGAGAAGACUGCGGGUUAGAGUCCCGUACGGAACG [C5G A21U C55A]	≤ 0.5
GUUCGGUUGGCGUAAUGGUAACGCGUCUCCCUCCUCAGGAGGAGACUGCGGGUUCGAGUCCCGUACAGAACG [C5G A36C A42G G67A]	≤ 0.5
GUUCGGUUGGCGUAAUGGUAACGCGUCUCCCUCCUAGGGAGAAGAGUGCGGGUUCGCGUCCCGUACGGAACG [C5G A37G C46G A57C]	≤ 0.5
GUUCGGUUGGCGUAAUGGUAACGCGUCUCCCUCCUAAGGCGAAGACAGCGGGUUCGAGUCCCGUAUGGAACG [C5G A40C U47A C66U]	≤ 0.5
GUUCGGUUGGCGUAAUGGUAACGCGUCUCCCUCCUAAGGUGGAGACUGCGGGGACGAGUCCCGUACGGAUCG [C5G A40U A42G U53G U54A A70U]	≤ 0.5
GUUCGGUUGGCGUAAUGGUAACGCGUCUCCCUCCUAAGGAGUAGACUGCGGGUUCGAGUCCCGUACGGACCG [C5G A42U A70C]	0.681
GUUCGGUUGGCGUAAUGGUAACGCGUCUCCCUCCUAAGGAGAAGUCUGCGGGUUCGUGUCCCGUACGGAACG [C5G A45U A57U]	0.565
GUUCGGUUGGAGUAAUGGUAACGCGUCUCGCUCCUAAGGAGAAGACUGCGGGUUCGAGUCCCGAACGGAACG [C5G C11A C30G U64A]	≤ 0.5
GUUCGGUUGGUGUAAUGGUAACGCGUCACCCUCCUAAGGAGAAGACUGCGGGUUCGAGUCCCGUACGGAACG [C5G C11U U28A]	≤ 0.5
GUUCGGUUGGCGUAAUGGUAAGGCGUCUCCCUCCUAAGGAGAAGACUGCGGGUUCGAGUCCCGUACCGAACG [C5G C22G G67C]	≤ 0.5
GUUCGGUUGGCGUAAUGGUAAUGCGUCUCCCUCCUGAGGAGAAGACUGCGGGUUCGAGUCCCGUAGGGAACG [C5G C22U A36G C66G]	≤ 0.5
GUUCGGUUGGCGUAAUGGUAACGGGCCUCCCUCCUAGGGAGAAGACUGCGGGUGCGAGUCGCGUACGGAACG [C5G C24G U26C A37G U54G C61G]	≤ 0.5
GUUCGGUUGGCGUAAUGGUAACGCGUGUCCCUCCUAAGGAGAAGAUUGCGGGUUCGAGUACCGUAGGCAACG [C5G C27G C46U C60A C66G G68C]	≤ 0.5
GUUCGGUUGGCGUAAUGGUAACGCGUCUACCUCCUAAGGAGAAGACUGCGGGUUCGAGUCCCGUAUGGAACG [C5G C29A C66U]	≤ 0.5
GUUCGGUUGGCGUAAUGGUAACGCGUCUGCCUCCUAAGGAGAAGACUGCGGGUUUGAGGCCCGUACGGAACG [C5G C29G C55U U59G]	≤ 0.5
GUUCGGUUGGCGUAAUGGUAACGCGUCUCAAUCCUAAGGAGAAGACUGUGGGUUGGAGUCCCGUACAGAACG [C5G C30A C31A C49U C55G G67A]	≤ 0.5
GUUCGGUUGGCGUAAUGGUAACGCGUCUCACUCCUAAGGAGAAGACUGCGGGUUCGACUCCCGUACGAAACG [C5G C30A G58C G68A]	≤ 0.5
GUUCGGUUGGCGUAAUGGUAACGCGUCUCUCACCUAAGGAGAAGACUGGGGGUUCGAGUCCCGUACGGAACG [C5G C30U U32A C49G]	≤ 0.5
GUUCGGUUGGCGUAAUGGUAACGCGUCUCCCUGCUUACGAGAAGACUGCGGGUUCGAGUCCCGUGCGGAACG [C5G C33G A36U G38C A65G]	≤ 0.5
